Data on three molecules can be found in PMC6018503.

For test [1], the target named is T1, AtRFC2 (Arabidopsis thaliana) (UniProt Q9CAM7).
T1 sequence: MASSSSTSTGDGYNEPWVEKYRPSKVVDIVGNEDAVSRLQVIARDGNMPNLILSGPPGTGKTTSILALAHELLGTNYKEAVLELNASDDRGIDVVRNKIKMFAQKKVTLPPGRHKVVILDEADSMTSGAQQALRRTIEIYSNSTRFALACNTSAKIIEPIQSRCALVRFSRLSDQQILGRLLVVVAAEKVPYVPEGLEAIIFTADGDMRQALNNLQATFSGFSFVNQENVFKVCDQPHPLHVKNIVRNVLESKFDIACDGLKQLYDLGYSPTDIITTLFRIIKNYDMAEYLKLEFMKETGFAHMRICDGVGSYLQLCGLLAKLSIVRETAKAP
Description: split reporter; BiFC; YFP^N (aa 1-155) and YFP^C (aa 156-239) fusions (pCAMBIA-SPYNE, pCAMBIA-SPYCE) co-expressed in tobacco (Nicotiana benthamiana) leaf epidermal cells through Agrobacterium GV3101; confocal microscopy of YFP; only the two named fusions.

The target of test [2] is T2, AtRFC1 (Arabidopsis thaliana) (UniProt Q9C587).
T2 sequence: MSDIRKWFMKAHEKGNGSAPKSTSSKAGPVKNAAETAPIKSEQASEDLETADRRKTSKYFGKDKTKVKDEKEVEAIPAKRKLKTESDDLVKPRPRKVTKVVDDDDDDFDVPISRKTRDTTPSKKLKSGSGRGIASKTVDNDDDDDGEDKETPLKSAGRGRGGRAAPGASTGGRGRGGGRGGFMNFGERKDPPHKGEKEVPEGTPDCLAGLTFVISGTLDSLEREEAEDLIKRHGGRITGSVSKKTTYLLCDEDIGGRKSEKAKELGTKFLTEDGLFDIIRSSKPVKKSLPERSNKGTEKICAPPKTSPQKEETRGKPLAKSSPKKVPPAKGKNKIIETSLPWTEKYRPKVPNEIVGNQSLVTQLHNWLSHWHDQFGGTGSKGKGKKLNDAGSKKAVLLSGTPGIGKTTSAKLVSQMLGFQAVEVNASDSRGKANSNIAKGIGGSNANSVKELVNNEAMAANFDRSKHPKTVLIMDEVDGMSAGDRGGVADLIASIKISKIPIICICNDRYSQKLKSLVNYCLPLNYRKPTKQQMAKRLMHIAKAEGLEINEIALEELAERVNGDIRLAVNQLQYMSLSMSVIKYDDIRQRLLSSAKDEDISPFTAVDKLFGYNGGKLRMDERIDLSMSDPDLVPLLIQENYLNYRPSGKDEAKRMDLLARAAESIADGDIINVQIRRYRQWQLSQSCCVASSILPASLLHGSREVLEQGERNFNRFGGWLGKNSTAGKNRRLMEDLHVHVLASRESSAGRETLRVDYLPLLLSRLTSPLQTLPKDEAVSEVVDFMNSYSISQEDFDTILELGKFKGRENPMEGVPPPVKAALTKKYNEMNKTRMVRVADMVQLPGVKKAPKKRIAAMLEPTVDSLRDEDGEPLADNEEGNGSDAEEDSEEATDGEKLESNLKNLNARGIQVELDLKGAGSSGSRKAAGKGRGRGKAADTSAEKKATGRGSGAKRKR
Description: split reporter; BiFC in tobacco leaf epidermal cells with truncated AtRFC proteins, pairs that include AtRFC1 or a truncated AtRFC1; whether the other small subunits were co-expressed is not said.

Test [3] deals with AtRFC3 (Arabidopsis thaliana). The test is described as above.

Results are given in words; binding and its absence hold for the method and conditions named. Binding seen in cells or lysates may run through a third protein. For some assays here: Binding calls can cover weak binding; strength is not graded here.

On to “AtRFC3 ΔC330–369 (Arabidopsis thaliana) (domain or fragment)”, for which the binding result in test [1] and in test [2] was “no binding” throughout. With “AtRFC3 Δ350–369 (Arabidopsis thaliana) (domain or fragment)”, the values for the binding result in test [1] and in test [2] were “binds” and “no binding”, respectively.

B1: AtRFC1 Δ1-457 (domain or fragment, UniProt Q9C587 458-956)
chain: MAANFDRSKHPKTVLIMDEVDGMSAGDRGGVADLIASIKISKIPIICICNDRYSQKLKSLVNYCLPLNYRKPTKQQMAKRLMHIAKAEGLEINEIALEELAERVNGDIRLAVNQLQYMSLSMSVIKYDDIRQRLLSSAKDEDISPFTAVDKLFGYNGGKLRMDERIDLSMSDPDLVPLLIQENYLNYRPSGKDEAKRMDLLARAAESIADGDIINVQIRRYRQWQLSQSCCVASSILPASLLHGSREVLEQGERNFNRFGGWLGKNSTAGKNRRLMEDLHVHVLASRESSAGRETLRVDYLPLLLSRLTSPLQTLPKDEAVSEVVDFMNSYSISQEDFDTILELGKFKGRENPMEGVPPPVKAALTKKYNEMNKTRMVRVADMVQLPGVKKAPKKRIAAMLEPTVDSLRDEDGEPLADNEEGNGSDAEEDSEEATDGEKLESNLKNLNARGIQVELDLKGAGSSGSRKAAGKGRGRGKAADTSAEKKATGRGSGAKRKR
As to B1, in test [3], the binding entry was “no binding”.
